{"source": "PubChem BioAssay AID1259308 (NCATS, 2017)", "aim": "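Candidate targets for better recombinant protein yield in mammalian cells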 (primary screen)", "cells": "human HEK293 embryonic kidney cells stably expressing firefly luciferase (HEK-CMV-Luc2-Hygro)", "reagents": "single siRNA against human genes, 0.8 pmol siRNA per well", "time to read-out": "72 h", "read-out": "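Reporter luminescence and viable-cell signal on separate replicate plates, given as percent of non-targeting control and median/MAD z-scores, plus per-cell luciferase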", "direction": "total luciferase, z-score: higher = more reporter protein produced", "active means": "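Active when the median/MAD z-score for overall luciferase is greater than 3; a gene was taken forward for validation with new siRNAs if at least two of its three siRNAs passed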", "calls": "active = raised luciferase; inactive = no rise", "note": "In all, the deposit lists about 59,000 reagents; below is a part drawn at random. In the full data, about 1,510 (2.6%) got an active call. 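Calls use total luciferase alone and ignore viability, so some active siRNAs may act by altering cell number.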 The numbers tell different reagents against one gene apart. Further read-outs or replicates are left out here."}
{"Target gene": "SLC17A2", "reagent no.": 1, "total luciferase, z-score": 0.364, "activity call": "inactive"}
{"Target gene": "SLC17A2", "reagent no.": 2, "total luciferase, z-score": 0.261, "activity call": "inactive"}
{"Target gene": "SLC17A2", "reagent no.": 3, "total luciferase, z-score": -0.984, "activity call": "inactive"}
{"Target gene": "OR1K1", "reagent no.": 1, "total luciferase, z-score": -0.0686, "activity call": "inactive"}
{"Target gene": "OR1K1", "reagent no.": 2, "total luciferase, z-score": 1.41, "activity call": "inactive"}
{"Target gene": "OR1K1", "reagent no.": 3, "total luciferase, z-score": 0.332, "activity call": "inactive"}
{"Target gene": "TXLNG", "reagent no.": 1, "total luciferase, z-score": 1.03, "activity call": "inactive"}
{"Target gene": "TXLNG", "reagent no.": 2, "total luciferase, z-score": -0.192, "activity call": "inactive"}
{"Target gene": "TXLNG", "reagent no.": 3, "total luciferase, z-score": 0.908, "activity call": "inactive"}
{"Target gene": "GABPB2", "reagent no.": 1, "total luciferase, z-score": -0.959, "activity call": "inactive"}
{"Target gene": "GABPB2", "reagent no.": 2, "total luciferase, z-score": -0.188, "activity call": "inactive"}
{"Target gene": "GABPB2", "reagent no.": 3, "total luciferase, z-score": -0.339, "activity call": "inactive"}
{"Target gene": "ARL8A", "reagent no.": 1, "total luciferase, z-score": -1.05, "activity call": "inactive"}
{"Target gene": "ARL8A", "reagent no.": 2, "total luciferase, z-score": 0.475, "activity call": "inactive"}
{"Target gene": "ARL8A", "reagent no.": 3, "total luciferase, z-score": -1.14, "activity call": "inactive"}
{"Target gene": "IKBKG", "reagent no.": 1, "total luciferase, z-score": 1.48, "activity call": "inactive"}
{"Target gene": "IKBKG", "reagent no.": 2, "total luciferase, z-score": 0.436, "activity call": "inactive"}
{"Target gene": "IKBKG", "reagent no.": 3, "total luciferase, z-score": -1.64, "activity call": "inactive"}
{"Target gene": "EAF2", "reagent no.": 1, "total luciferase, z-score": 0.899, "activity call": "inactive"}
{"Target gene": "EAF2", "reagent no.": 2, "total luciferase, z-score": 0.297, "activity call": "inactive"}
{"Target gene": "EAF2", "reagent no.": 3, "total luciferase, z-score": -1.04, "activity call": "inactive"}
{"Target gene": "COX6B2", "reagent no.": 1, "total luciferase, z-score": 1.06, "activity call": "inactive"}
{"Target gene": "COX6B2", "reagent no.": 2, "total luciferase, z-score": -1.18, "activity call": "inactive"}
{"Target gene": "COX6B2", "reagent no.": 3, "total luciferase, z-score": -1.23, "activity call": "inactive"}
{"Target gene": "HELT", "reagent no.": 1, "total luciferase, z-score": 0.878, "activity call": "inactive"}
{"Target gene": "HELT", "reagent no.": 2, "total luciferase, z-score": 0.273, "activity call": "inactive"}
{"Target gene": "HELT", "reagent no.": 3, "total luciferase, z-score": 0.134, "activity call": "inactive"}
{"Target gene": "DPPA3", "reagent no.": 1, "total luciferase, z-score": -1.18, "activity call": "inactive"}
{"Target gene": "DPPA3", "reagent no.": 2, "total luciferase, z-score": 0.472, "activity call": "inactive"}
{"Target gene": "DPPA3", "reagent no.": 3, "total luciferase, z-score": -0.405, "activity call": "inactive"}
{"Target gene": "DNAJB1", "reagent no.": 1, "total luciferase, z-score": 1.28, "activity call": "inactive"}
{"Target gene": "DNAJB1", "reagent no.": 2, "total luciferase, z-score": -0.27, "activity call": "inactive"}
{"Target gene": "DNAJB1", "reagent no.": 3, "total luciferase, z-score": 0.348, "activity call": "inactive"}

A few values from the entries so far.
ARL8A #3, activity call: inactive
Entry for OR1K1 #2 under “activity call”: inactive
